In publication PMC4033603:
No constants are given. Whether binding was seen depends on the method and setting. In cells and extracts the contact can be indirect. Some entries that bind do so weakly or less than the wild type.

Sequences of proteins named here, by UniProt entry; tags and fusion partners are left off. A change or cut given only in a name is not applied to a line headed by its entry. Residues count along the entry.
UniProt P46531: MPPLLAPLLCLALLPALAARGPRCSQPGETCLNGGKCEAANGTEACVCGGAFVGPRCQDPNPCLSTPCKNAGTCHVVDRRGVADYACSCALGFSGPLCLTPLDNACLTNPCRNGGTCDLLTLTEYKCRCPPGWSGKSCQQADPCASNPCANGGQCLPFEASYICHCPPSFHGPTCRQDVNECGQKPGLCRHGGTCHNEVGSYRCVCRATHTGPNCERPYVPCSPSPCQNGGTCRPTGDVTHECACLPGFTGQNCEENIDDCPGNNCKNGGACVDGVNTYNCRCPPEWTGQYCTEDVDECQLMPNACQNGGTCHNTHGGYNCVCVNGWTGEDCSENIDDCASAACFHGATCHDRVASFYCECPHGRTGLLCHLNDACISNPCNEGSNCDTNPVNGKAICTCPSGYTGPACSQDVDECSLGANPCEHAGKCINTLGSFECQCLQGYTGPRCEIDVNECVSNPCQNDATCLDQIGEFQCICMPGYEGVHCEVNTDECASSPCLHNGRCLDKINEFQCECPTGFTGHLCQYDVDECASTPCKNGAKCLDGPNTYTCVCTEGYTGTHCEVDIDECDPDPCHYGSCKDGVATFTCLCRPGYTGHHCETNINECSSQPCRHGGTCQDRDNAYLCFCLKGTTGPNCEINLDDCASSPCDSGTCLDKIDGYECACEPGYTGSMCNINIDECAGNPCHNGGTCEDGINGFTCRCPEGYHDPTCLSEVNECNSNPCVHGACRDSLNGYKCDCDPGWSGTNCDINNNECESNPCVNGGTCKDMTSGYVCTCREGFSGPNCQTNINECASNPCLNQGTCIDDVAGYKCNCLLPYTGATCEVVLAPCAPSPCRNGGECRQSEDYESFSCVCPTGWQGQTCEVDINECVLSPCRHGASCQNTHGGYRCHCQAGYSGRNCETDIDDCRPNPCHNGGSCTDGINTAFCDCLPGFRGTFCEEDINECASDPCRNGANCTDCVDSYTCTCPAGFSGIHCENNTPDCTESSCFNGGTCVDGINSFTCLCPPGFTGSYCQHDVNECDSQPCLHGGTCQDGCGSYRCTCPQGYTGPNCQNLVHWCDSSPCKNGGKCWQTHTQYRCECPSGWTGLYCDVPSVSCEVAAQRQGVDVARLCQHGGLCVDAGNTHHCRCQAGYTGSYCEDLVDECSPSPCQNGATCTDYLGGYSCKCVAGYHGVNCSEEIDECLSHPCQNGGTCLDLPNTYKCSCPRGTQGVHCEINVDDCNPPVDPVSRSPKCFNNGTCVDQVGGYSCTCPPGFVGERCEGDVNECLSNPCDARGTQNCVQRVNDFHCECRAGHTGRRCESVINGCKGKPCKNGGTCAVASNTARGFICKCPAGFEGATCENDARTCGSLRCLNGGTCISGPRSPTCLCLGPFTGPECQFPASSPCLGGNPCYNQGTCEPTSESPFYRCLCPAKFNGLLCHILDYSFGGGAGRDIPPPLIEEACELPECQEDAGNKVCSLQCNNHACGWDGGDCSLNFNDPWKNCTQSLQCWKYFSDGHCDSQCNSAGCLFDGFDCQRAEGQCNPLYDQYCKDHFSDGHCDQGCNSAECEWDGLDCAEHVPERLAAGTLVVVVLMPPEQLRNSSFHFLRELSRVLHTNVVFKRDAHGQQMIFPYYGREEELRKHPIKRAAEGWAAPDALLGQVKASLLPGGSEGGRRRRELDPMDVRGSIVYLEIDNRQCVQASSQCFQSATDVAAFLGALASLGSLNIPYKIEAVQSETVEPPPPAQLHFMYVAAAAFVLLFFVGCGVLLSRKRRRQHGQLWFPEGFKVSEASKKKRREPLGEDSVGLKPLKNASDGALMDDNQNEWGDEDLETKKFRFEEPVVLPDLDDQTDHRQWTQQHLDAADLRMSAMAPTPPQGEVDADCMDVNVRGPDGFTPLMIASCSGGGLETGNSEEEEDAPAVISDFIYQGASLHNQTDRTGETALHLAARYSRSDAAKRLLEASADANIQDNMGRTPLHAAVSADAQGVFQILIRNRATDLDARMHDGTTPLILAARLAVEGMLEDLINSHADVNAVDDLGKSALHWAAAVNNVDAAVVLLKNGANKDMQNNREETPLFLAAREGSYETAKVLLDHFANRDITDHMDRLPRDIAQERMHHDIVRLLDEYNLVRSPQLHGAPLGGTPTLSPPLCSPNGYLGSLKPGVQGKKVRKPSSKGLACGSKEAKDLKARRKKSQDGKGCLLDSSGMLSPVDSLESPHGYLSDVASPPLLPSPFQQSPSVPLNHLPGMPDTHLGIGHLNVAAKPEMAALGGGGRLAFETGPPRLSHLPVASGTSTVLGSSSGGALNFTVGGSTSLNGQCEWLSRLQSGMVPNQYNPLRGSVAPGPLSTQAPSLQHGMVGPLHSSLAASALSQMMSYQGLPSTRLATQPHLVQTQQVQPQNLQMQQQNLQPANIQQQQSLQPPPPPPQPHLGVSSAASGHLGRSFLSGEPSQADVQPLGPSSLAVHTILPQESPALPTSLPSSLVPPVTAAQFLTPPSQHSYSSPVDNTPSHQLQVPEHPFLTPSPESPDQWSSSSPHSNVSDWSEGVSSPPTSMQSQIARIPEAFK
NOTCH1 (human (endogenous in Jurkat)): residues 19-2555 of P46531
UniProt Q04759: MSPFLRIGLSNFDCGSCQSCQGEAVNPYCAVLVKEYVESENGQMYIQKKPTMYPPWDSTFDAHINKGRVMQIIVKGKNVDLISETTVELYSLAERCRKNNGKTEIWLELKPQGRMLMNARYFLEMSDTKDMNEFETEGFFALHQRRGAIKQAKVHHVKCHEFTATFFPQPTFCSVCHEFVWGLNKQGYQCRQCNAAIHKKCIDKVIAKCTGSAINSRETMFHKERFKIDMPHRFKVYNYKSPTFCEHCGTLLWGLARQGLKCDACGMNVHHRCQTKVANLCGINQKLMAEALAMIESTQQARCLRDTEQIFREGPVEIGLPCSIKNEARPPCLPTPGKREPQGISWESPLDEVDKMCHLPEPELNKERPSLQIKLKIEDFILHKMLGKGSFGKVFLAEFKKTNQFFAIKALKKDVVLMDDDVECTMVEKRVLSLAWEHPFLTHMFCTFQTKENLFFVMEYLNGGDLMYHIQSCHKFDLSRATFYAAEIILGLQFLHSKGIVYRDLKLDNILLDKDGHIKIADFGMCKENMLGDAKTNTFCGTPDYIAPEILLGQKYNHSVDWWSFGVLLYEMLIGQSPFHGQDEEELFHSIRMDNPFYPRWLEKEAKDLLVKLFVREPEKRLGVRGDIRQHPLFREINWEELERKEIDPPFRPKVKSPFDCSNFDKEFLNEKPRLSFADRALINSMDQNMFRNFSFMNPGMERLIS

Key:
Test in all cases: co-IP; endogenous proteins in whole cell lysates of Jurkat T cells (also mock-infected controls) stimulated with plate-bound anti-human CD3ε and anti-human CD28 for the indicated times; 1% NP-40 lysis buffer (10 mM Tris-HCl pH 7.8, 0.5 mM EDTA, 250 mM NaCl); 2 μg antibody overnight at 4°C, protein G-sepharose; immunoblot
[1] = target: T1, BCL10 (human (endogenous in Jurkat)) (UniProt O95999)
T1 sequence: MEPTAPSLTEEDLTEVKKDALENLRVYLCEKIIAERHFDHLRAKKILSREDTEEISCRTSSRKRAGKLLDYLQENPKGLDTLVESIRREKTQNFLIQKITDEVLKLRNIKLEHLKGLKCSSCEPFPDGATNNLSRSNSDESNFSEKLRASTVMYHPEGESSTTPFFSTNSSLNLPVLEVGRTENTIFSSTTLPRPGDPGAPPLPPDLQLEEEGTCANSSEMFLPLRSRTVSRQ

[2] = target: T2, CARMA1 (human (endogenous in Jurkat)) (UniProt Q9BXL7)
T2 sequence: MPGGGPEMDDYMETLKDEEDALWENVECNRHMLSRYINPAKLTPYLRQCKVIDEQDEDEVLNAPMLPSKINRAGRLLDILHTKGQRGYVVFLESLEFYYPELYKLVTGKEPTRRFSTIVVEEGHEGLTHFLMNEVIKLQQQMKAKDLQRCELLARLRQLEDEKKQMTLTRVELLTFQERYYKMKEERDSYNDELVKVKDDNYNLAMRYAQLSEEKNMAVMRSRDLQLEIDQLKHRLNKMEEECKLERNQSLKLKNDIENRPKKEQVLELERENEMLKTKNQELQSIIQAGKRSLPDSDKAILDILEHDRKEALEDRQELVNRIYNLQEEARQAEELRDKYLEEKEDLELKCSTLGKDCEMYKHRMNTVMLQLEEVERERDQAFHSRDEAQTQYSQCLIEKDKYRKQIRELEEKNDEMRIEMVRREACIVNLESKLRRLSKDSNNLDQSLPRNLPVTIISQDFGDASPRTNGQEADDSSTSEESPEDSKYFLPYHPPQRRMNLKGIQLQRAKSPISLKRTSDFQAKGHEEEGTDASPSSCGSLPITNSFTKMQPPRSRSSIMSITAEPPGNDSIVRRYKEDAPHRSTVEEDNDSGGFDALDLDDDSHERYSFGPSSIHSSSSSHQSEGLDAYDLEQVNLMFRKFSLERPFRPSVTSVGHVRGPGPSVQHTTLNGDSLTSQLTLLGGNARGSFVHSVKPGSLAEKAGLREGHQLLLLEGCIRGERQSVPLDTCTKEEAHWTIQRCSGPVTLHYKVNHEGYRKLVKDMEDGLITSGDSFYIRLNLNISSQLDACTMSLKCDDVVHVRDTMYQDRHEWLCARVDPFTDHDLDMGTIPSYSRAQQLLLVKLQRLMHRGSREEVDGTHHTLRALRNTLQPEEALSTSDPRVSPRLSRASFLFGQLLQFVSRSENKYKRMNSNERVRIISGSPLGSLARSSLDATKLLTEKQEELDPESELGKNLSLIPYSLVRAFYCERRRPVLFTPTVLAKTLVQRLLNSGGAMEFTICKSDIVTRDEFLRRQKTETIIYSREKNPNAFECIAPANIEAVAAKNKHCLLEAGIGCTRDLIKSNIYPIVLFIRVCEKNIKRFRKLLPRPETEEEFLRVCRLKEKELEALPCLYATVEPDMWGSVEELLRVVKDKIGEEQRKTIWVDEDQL

[3] = target: NOTCH1 (human (endogenous in Jurkat)) (UniProt P46531)

| binding [1] | binding [2] | binding [3] | Substance |
| --- | --- | --- | --- |
| binds | binds |  | NOTCH1 (from UniProt P46531 19-2555) (receptor) |
|  |  | binds | PKCθ (from UniProt Q04759 1-706) (enzyme) |
|  | binds |  | intracellular domain of NOTCH1 (~110 kDa) (from UniProt P46531 1754-2555) (domain or fragment) |
